Source: the supplement of paper PMC6411743
± gives the standard deviation of the averaged measurements. The entries are a selection whose mix differs from that of the whole data set. Small differences around the control level are noise.

The chains behind the UniProt entries cited, without tags or fusion partners. Where a name states a change or a piece, a line headed by the entry shows the natural chain unless it says otherwise.
UniProt Q9UJD0: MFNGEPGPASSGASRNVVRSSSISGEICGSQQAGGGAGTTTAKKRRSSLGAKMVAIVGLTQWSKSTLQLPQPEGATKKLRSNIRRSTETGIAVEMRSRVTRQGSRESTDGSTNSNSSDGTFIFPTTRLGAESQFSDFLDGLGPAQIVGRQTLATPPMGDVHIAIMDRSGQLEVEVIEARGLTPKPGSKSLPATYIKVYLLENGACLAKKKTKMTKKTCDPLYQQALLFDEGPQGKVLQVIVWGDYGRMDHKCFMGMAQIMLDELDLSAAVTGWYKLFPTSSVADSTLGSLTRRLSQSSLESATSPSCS
UniProt Q9UGP8: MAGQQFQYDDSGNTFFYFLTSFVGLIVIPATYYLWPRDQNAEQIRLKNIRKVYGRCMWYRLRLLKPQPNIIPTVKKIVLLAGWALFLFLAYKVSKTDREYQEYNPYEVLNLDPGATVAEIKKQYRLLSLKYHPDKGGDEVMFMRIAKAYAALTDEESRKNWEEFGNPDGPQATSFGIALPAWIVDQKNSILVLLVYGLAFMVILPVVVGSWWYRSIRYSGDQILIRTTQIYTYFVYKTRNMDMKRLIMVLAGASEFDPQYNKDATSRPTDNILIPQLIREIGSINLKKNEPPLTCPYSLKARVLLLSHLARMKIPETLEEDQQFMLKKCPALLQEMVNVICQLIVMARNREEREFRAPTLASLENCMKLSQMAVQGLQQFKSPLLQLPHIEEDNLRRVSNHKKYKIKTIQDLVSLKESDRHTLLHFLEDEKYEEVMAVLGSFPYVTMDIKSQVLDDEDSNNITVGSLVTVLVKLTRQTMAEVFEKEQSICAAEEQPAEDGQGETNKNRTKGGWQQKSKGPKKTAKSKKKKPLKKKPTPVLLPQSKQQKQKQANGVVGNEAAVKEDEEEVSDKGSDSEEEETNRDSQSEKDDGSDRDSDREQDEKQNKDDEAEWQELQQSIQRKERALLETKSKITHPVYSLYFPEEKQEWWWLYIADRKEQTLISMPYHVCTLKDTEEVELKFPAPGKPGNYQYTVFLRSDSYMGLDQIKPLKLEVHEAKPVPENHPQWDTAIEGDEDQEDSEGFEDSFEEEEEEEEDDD
UniProt Q9UI08, whole entry: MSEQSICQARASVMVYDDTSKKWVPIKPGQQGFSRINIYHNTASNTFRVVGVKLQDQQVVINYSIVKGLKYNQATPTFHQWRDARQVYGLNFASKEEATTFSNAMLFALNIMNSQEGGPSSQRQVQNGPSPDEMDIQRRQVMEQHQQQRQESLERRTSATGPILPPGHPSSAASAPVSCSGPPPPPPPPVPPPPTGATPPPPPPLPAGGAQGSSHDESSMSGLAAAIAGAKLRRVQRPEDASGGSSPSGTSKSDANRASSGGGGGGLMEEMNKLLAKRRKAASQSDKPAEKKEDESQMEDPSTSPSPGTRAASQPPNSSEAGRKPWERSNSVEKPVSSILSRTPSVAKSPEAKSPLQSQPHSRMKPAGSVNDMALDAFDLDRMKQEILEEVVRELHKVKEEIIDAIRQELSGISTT
UniProt Q9UHQ9: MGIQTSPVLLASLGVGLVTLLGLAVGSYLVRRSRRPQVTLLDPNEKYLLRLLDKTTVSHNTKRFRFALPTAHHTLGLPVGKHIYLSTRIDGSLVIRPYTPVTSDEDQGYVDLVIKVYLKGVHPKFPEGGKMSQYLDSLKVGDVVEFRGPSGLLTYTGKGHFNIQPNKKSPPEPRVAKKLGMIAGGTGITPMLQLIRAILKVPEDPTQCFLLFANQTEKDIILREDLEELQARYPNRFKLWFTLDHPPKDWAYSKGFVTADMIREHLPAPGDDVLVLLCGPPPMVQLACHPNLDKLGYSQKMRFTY
UniProt Q9UGJ1, whole entry: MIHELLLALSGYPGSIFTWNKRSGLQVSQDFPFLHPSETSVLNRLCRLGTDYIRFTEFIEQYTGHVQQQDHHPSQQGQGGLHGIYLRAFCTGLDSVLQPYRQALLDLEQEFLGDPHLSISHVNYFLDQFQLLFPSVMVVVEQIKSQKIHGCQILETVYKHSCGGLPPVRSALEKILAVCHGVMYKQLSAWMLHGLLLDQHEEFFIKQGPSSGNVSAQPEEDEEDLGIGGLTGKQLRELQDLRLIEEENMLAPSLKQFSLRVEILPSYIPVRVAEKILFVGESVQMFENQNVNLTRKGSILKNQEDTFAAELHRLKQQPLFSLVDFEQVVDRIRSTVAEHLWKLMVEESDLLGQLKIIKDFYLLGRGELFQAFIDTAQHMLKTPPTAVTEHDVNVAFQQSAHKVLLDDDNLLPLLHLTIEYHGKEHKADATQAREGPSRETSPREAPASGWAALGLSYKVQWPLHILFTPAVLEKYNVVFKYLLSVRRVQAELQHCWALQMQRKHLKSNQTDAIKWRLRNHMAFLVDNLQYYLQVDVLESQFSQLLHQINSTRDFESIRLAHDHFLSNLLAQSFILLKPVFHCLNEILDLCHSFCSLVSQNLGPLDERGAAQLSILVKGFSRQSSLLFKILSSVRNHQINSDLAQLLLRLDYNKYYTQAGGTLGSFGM
UniProt Q9Y394: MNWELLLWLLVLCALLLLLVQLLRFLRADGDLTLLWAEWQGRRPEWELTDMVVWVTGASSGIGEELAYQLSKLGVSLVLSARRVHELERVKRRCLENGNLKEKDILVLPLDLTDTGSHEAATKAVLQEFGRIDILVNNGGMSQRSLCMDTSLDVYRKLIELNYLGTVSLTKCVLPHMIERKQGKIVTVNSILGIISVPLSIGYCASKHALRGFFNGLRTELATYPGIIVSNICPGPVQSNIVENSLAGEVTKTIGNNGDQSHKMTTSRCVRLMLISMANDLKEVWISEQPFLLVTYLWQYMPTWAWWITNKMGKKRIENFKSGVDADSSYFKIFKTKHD
UniProt Q9Y2G2: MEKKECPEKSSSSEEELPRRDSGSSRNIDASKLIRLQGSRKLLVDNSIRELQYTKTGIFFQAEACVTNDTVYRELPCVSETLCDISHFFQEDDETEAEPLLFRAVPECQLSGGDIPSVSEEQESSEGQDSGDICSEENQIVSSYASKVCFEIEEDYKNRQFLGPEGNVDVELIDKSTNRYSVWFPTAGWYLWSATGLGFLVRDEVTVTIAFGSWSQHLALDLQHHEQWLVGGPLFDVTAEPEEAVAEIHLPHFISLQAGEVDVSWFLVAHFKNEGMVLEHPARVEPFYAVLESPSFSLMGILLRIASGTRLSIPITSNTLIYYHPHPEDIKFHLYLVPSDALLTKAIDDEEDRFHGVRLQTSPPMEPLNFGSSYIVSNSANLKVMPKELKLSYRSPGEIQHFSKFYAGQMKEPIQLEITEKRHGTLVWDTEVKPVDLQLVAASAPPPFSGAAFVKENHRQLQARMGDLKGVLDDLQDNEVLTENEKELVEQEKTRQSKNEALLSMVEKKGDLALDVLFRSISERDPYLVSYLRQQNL
UniProt Q9UBV8: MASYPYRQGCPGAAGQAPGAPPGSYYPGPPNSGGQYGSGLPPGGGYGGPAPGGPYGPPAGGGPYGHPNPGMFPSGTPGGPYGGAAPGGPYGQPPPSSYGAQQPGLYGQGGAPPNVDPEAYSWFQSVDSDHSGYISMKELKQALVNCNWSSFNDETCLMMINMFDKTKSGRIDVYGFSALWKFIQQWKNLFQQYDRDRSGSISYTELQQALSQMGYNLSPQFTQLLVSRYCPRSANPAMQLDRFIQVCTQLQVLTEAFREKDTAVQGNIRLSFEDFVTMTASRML
UniProt Q9Y2V2: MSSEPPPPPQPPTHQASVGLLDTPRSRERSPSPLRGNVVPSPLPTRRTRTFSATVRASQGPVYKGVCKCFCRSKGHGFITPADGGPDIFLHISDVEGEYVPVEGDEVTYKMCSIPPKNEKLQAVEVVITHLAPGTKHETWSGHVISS
UniProt Q9UKU7: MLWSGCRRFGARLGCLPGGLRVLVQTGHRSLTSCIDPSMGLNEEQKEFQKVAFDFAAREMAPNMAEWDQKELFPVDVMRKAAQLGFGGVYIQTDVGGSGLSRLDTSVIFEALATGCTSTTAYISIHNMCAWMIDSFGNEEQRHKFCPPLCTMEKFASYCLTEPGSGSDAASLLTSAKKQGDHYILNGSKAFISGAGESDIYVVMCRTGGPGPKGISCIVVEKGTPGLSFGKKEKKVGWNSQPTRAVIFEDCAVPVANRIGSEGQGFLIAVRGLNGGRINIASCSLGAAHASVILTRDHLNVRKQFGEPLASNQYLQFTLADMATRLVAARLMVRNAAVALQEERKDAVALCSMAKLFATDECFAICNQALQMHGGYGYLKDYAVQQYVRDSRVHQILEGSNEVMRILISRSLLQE
UniProt Q9UIW2: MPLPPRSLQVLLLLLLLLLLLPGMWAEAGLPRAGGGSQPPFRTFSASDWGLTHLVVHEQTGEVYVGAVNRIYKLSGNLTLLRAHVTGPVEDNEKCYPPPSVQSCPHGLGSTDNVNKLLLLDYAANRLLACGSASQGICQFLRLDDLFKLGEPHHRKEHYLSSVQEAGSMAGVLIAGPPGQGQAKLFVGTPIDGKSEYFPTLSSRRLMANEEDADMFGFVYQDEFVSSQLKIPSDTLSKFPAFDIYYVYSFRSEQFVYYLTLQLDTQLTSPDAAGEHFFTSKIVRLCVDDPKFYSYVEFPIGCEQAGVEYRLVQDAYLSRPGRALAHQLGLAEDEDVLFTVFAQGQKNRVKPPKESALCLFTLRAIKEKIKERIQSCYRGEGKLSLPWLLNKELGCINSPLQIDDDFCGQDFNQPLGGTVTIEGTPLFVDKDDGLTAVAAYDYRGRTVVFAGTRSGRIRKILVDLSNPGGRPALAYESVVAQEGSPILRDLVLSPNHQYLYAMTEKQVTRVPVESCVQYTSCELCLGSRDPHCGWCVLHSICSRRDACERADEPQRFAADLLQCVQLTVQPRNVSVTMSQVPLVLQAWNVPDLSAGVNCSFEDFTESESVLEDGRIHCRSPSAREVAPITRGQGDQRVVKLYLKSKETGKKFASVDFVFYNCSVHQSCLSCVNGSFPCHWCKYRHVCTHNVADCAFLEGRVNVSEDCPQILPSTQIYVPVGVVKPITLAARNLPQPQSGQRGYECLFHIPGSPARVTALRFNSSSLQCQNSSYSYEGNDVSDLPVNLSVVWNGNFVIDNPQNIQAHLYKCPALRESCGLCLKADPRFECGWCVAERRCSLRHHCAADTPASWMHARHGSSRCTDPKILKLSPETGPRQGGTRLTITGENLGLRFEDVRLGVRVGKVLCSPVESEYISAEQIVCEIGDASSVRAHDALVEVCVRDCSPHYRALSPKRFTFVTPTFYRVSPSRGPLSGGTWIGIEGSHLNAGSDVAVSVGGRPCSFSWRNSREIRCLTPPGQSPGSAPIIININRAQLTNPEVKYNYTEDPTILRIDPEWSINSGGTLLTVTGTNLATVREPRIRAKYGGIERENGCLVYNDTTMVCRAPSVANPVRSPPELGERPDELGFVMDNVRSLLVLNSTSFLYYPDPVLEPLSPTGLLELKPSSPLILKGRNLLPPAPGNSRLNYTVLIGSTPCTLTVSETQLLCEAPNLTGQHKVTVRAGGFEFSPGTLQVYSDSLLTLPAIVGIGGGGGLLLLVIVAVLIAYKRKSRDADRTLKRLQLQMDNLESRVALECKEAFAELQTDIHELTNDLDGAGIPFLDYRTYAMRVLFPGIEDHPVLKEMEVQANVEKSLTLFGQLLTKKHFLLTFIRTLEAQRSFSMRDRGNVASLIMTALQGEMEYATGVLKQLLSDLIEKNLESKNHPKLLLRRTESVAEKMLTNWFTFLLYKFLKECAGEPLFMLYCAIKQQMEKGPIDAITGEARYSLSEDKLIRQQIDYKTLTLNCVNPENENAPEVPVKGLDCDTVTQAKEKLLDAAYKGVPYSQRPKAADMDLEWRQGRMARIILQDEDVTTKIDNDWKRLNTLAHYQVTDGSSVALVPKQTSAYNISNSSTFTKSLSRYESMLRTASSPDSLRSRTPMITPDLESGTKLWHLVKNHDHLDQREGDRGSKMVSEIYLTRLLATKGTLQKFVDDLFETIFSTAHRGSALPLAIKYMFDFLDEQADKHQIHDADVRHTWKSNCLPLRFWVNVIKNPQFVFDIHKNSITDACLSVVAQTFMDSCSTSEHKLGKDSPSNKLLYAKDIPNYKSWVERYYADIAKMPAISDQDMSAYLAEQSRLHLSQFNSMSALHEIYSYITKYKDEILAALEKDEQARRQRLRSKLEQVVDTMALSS
UniProt Q9ULR3: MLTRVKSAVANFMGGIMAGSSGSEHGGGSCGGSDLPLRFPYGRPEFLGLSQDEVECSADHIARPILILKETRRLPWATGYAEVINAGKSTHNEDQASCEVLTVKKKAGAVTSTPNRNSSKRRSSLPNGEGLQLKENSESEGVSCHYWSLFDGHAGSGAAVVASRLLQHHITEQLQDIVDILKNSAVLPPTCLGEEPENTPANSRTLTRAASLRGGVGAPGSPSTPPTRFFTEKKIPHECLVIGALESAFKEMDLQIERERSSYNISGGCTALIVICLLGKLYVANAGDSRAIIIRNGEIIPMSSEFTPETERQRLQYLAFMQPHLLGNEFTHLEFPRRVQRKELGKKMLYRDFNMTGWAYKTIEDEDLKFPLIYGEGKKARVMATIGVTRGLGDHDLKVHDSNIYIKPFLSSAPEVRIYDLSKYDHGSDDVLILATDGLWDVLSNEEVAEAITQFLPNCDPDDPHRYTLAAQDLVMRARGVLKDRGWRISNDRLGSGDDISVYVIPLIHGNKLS

Compound: Nc1ncnc2c1ncn2[C@@H]1O[C@H](COP(=O)(O)OP(=O)(O)NP(=O)(O)O)[C@@H](O)[C@H]1O [adenylyl imidodiphosphate]
Test: NP40-soluble protein abundance relative to vehicle (solubility fold change) (ratio); higher = more soluble protein in presence of AMP-PNP
How it was run: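 In three independent experiments, Jurkat crude lysate made by Dounce homogenisation was treated for 10 min at room temperature and then 3 min at 37 °C with eight concentrations ranging from 0.1 to 10 mM. It was then solubilised with 0.8% NP40 plus benzonase for 60 min at 4 °C and ultracentrifuged. The supernatant was TMT-labelled for LC-MS/MS, and each value is the fold change against the detergent-processed vehicle for the same replicate, using vsn-normalised intensities.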

Target	NP40-soluble protein abundance (concentration: 0.1mM)	NP40-soluble protein abundance (concentration: 0.5mM)
UniProt Q9UHH9	1.02 ± 0.019	1 ± 0.036
UniProt Q9ULL5-3	1.05 ± 0.037	1.01 ± 0.02
UniProt Q9UKT4 and related entries	0.996 ± 0.069	0.976 ± 0.051
UniProt Q9UI10 and related entries	1.01 ± 0.0074	0.982 ± 0.028
UniProt Q9UI30	0.995 ± 0.054	0.992 ± 0.061
AKAP11 (UniProt Q9UKA4)	0.974 ± 0.039	0.992 ± 0.041
UniProt Q9ULI0 and related entries	0.9986 ± 0.0096	1.03 ± 0.0027
UniProt Q9UN86-2	0.9939 ± 0.0021	1.03 ± 0.036
UniProt Q9Y3D8 and related entries	1.016 ± 0.0039	1.02 ± 0.015
SLC5A6 (UniProt Q9Y289)	1.02 ± 0.02	0.995 ± 0.075
LUC7L2 (UniProt Q9Y383)	1.05 ± 0.06	1.03 ± 0.082
RAB22A (UniProt Q9UL26)	1.01 ± 0.013	1.02 ± 0.033
UniProt Q9ULJ3 and related entries	0.9964 ± 0.0089	1.005 ± 0.0063
UniProt Q9UJD0	0.992 ± 0.02	1.01 ± 0.024
ZHX1 (UniProt Q9UKY1)	0.996 ± 0.02	1.02 ± 0.041
UniProt Q9ULR0 and related entries	0.985 ± 0.013	0.989 ± 0.042
WARS2 (UniProt Q9UGM6)	1 ± 0.024	1 ± 0.027
SEC63 (UniProt Q9UGP8)	0.989 ± 0.029	0.994 ± 0.034
MRPS28 (UniProt Q9Y2Q9)	1.05 ± 0.035	1.04 ± 0.081
AASS (UniProt Q9UDR5)	1.02 ± 0.026	0.984 ± 0.037
SERGEF (UniProt Q9UGK8)	0.986 ± 0.03	0.983 ± 0.036
UniProt Q9Y224	0.949 ± 0.057	0.99 ± 0.13
FAF1 (UniProt Q9UNN5)	0.994 ± 0.017	0.996 ± 0.036
UniProt Q9UK53-2|A0A0C4DFW2|Q9UK53 and related entries	1.03 ± 0.065	1.01 ± 0.038

Target	NP40-soluble protein abundance (concentration: 0.1mM)	NP40-soluble protein abundance (concentration: 0.5mM)
UniProt Q9UI08-2|G3V5F7	1.034 ± 0.01	0.994 ± 0.042
PLCL2 (UniProt Q9UPR0)	1.05 ± 0.034	1.03 ± 0.017
UniProt Q9Y2Y0 and related entries	0.996 ± 0.031	0.988 ± 0.028
UniProt Q9UL40 and related entries	1 ± 0.022	1.03 ± 0.0018
UniProt Q9UMZ2 and related entries	0.987 ± 0.026	0.988 ± 0.042
POFUT2 (UniProt Q9Y2G5)	0.9975 ± 0.0049	1 ± 0.014
UBQLN2 (UniProt Q9UHD9)	0.985 ± 0.035	1.05 ± 0.032
YEATS2 (UniProt Q9ULM3)	0.984 ± 0.013	0.9863 ± 0.0076
UniProt Q9UH03 and related entries	0.974 ± 0.027	0.98 ± 0.015
DDX20 (UniProt Q9UHI6)	1.01 ± 0.067	1.03 ± 0.079
AP3M1 (UniProt Q9Y2T2)	1.02 ± 0.019	0.988 ± 0.033
UniProt Q9ULP9 and related entries	0.984 ± 0.017	1.01 ± 0.031
UniProt Q9Y2S0 and related entries	0.999 ± 0.067	1.02 ± 0.059
UniProt Q9UKB1 and related entries	0.993 ± 0.026	0.998 ± 0.039
RAB23 (UniProt Q9ULC3)	0.996 ± 0.028	0.97 ± 0.024
DUSP12 (UniProt Q9UNI6)	1 ± 0.039	1.03 ± 0.067
SRRM2 (UniProt Q9UQ35)	1.02 ± 0.033	1.04 ± 0.039
CYB5R1 (UniProt Q9UHQ9)	1.03 ± 0.028	1.01 ± 0.11
UniProt Q9UN36 and related entries	0.971 ± 0.038	0.979 ± 0.03
XPO7 (UniProt Q9UIA9)	1 ± 0.037	0.986 ± 0.036
UniProt Q9Y237 and related entries	0.979 ± 0.064	1.03 ± 0.14
NUDC (UniProt Q9Y266)	0.981 ± 0.024	1.02 ± 0.041
UniProt Q9Y291 and related entries	1.07 ± 0.03	1.04 ± 0.037
UFC1 (UniProt Q9Y3C8)	0.996 ± 0.048	1.05 ± 0.08

Looked up one by one from above:
Target	NP40-soluble protein abundance (concentration: 0.1mM)	NP40-soluble protein abundance (concentration: 0.5mM)
UniProt Q9UMZ2 and related entries	0.987 ± 0.026	0.988 ± 0.042
UniProt Q9UKB1 and related entries	0.993 ± 0.026	0.998 ± 0.039
POFUT2 (UniProt Q9Y2G5)	0.9975 ± 0.0049	1 ± 0.014
RAB23 (UniProt Q9ULC3)	0.996 ± 0.028	0.97 ± 0.024
UniProt Q9ULP9 and related entries	0.984 ± 0.017	1.01 ± 0.031
UniProt Q9Y291 and related entries	1.07 ± 0.03	1.04 ± 0.037

(list continues)

Target	NP40-soluble protein abundance (concentration: 0.1mM)	NP40-soluble protein abundance (concentration: 0.5mM)
UniProt Q9Y2I7	0.982 ± 0.023	0.993 ± 0.038
C19orf53 (UniProt Q9UNZ5)	0.9887 ± 0.0088	1.06 ± 0.054
UniProt Q9Y2L9 and related entries	1 ± 0.044	1.01 ± 0.029
UniProt Q9UDY8 and related entries	0.998 ± 0.032	0.955 ± 0.038
UniProt Q9UKL6 and related entries	0.992 ± 0.015	0.994 ± 0.031
POMP (UniProt Q9Y244)	1 ± 0.057	1.03 ± 0.038
UniProt Q9UGJ1 and related entries	1.05 ± 0.073	1.03 ± 0.07
UniProt Q9Y394 and related entries	0.96 ± 0.045	0.962 ± 0.031
UniProt Q9UQ49 and related entries	0.989 ± 0.019	1 ± 0.0049
UniProt Q9UHB4 and related entries	0.984 ± 0.025	0.985 ± 0.022
AMDHD2 (UniProt Q9Y303)	1.02 ± 0.026	0.977 ± 0.069
UniProt Q9UPU7 and related entries	1.01 ± 0.026	1.03 ± 0.092
UBE2J1 (UniProt Q9Y385)	0.949 ± 0.059	0.935 ± 0.019
UniProt Q9UL12 and related entries	1.01 ± 0.024	0.9924 ± 0.0031
UniProt Q9UHP3 and related entries	0.974 ± 0.045	0.987 ± 0.0029
UniProt Q9Y2G2 and related entries	0.958 ± 0.02	0.986 ± 0.017
PEF1 (UniProt Q9UBV8)	0.985 ± 0.029	0.991 ± 0.019
MINPP1 (UniProt Q9UNW1)	1 ± 0.047	1.02 ± 0.044
UniProt Q9UK58 and related entries	0.986 ± 0.052	1.02 ± 0.061
UniProt Q9Y2Q0 and related entries	0.991 ± 0.022	0.9814 ± 0.0087
MRPS2 (UniProt Q9Y399)	1.03 ± 0.043	1.01 ± 0.044
UniProt Q9UG22	1.01 ± 0.037	1.01 ± 0.051
UniProt Q9UBT2 and related entries	1.03 ± 0.022	1.04 ± 0.05
COPS7A (UniProt Q9UBW8)	0.984 ± 0.047	1 ± 0.018

Target	NP40-soluble protein abundance (concentration: 0.1mM)	NP40-soluble protein abundance (concentration: 0.5mM)
UniProt Q9UGR2 and related entries	0.9965 ± 0.0073	0.979 ± 0.024
RUVBL2 (UniProt Q9Y230)	1.02 ± 0.035	1.04 ± 0.039
UniProt Q9UBS9-2|Q9UBS9	0.9712 ± 0.0051	1 ± 0.033
UniProt Q9ULH0 and related entries	1.02 ± 0.021	0.982 ± 0.058
UniProt Q9UNQ2	1.02 ± 0.032	0.983 ± 0.042
UniProt Q9UH92 and related entries	0.978 ± 0.043	1.01 ± 0.025
UniProt Q9UKZ1	0.965 ± 0.025	0.983 ± 0.021
ADD3 (UniProt Q9UEY8)	1.003 ± 0.0086	0.999 ± 0.017
DNAJB11 (UniProt Q9UBS4)	1 ± 0.014	0.955 ± 0.027
UniProt Q9Y2U5	0.993 ± 0.038	1.02 ± 0.013
UniProt Q9UHW5 and related entries	0.992 ± 0.022	0.998 ± 0.018
UniProt Q9UPZ3 and related entries	0.992 ± 0.02	1.02 ± 0.022
UTP11 (UniProt Q9Y3A2)	0.995 ± 0.039	1.02 ± 0.015
UniProt Q9UHD8 and related entries	0.994 ± 0.03	1.01 ± 0.042
CARHSP1 (UniProt Q9Y2V2)	1 ± 0.014	1.03 ± 0.051
VPS4A (UniProt Q9UN37)	1.04 ± 0.071	1.02 ± 0.052
UniProt Q9Y2I8 and related entries	1 ± 0.015	1 ± 0.019
UniProt Q9UNF0 and related entries	1.01 ± 0.032	1.03 ± 0.061
UniProt Q9Y312 and related entries	0.971 ± 0.028	0.935 ± 0.061
DICER1 (UniProt Q9UPY3)	1.01 ± 0.015	0.988 ± 0.037
UniProt Q9Y250 and related entries	0.999 ± 0.024	1.02 ± 0.036
UniProt Q9Y2I1 and related entries	0.966 ± 0.03	0.974 ± 0.022
UniProt Q9UIC8 and related entries	0.99 ± 0.049	0.95 ± 0.084
UniProt Q9UJY4 and related entries	0.997 ± 0.019	0.9821 ± 0.005

Target	NP40-soluble protein abundance (concentration: 0.1mM)	NP40-soluble protein abundance (concentration: 0.5mM)
ATP11B (UniProt Q9Y2G3)	1.044 ± 0.0067	0.956 ± 0.12
ACAD8 (UniProt Q9UKU7)	0.9956 ± 0.0064	0.989 ± 0.021
CHORDC1 (UniProt Q9UHD1)	0.973 ± 0.016	0.974 ± 0.043
GGT7 (UniProt Q9UJ14)	0.978 ± 0.025	1.01 ± 0.016
UniProt Q9UID6 and related entries	1 ± 0.022	1.011 ± 0.0079
UniProt Q9Y2A7 and related entries	0.9746 ± 0.009	0.98 ± 0.017
FIS1 (UniProt Q9Y3D6)	0.985 ± 0.034	0.996 ± 0.09
UniProt Q9UKW4 and related entries	1 ± 0.011	1.02 ± 0.024
GTF3C4 (UniProt Q9UKN8)	1.01 ± 0.049	1.01 ± 0.025
RRP15 (UniProt Q9Y3B9)	0.979 ± 0.025	0.994 ± 0.036
PLXNA1 (UniProt Q9UIW2)	0.987 ± 0.0089	0.999 ± 0.0042
SEL1L (UniProt Q9UBV2)	0.994 ± 0.038	1 ± 0.026
UniProt Q9ULK6 and related entries	1.04 ± 0.11	1.016 ± 0.008
MAGED2 (UniProt Q9UNF1)	0.989 ± 0.026	0.991 ± 0.034
PPM1H (UniProt Q9ULR3)	0.997 ± 0.048	0.987 ± 0.041
UniProt Q9Y2H0 and related entries	0.978 ± 0.026	0.982 ± 0.039
UniProt Q9UHB9 and related entries	1 ± 0.023	1 ± 0.028
MTMR6 (UniProt Q9Y217)	0.978 ± 0.023	0.983 ± 0.038
UniProt Q9Y2V7 and related entries	0.9853 ± 0.0041	0.9969 ± 0.0088
BCS1L (UniProt Q9Y276)	1.02 ± 0.044	0.969 ± 0.046
UniProt Q9ULH7-4|Q9ULH7-5|Q9ULH7	0.981 ± 0.017	0.987 ± 0.054
VDAC3 (UniProt Q9Y277)	1 ± 0.037	1.02 ± 0.069
DRG1 (UniProt Q9Y295)	1.02 ± 0.014	0.995 ± 0.023
COPS3 (UniProt Q9UNS2)	1.02 ± 0.034	1 ± 0.019
